PubChem BioAssay AID1259425 – University of Nebraska Medical Center – 2018
Here is a random part of about 14,000 reagents. A reagent listed more than once was tested more than once; the source does not tell the runs apart. Not given: the time to read-out.

Test: 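Find knockdowns that reproduce the gene expression pattern seen when KSR1 is lost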 (primary screen)
System: HCT116 human colon cancer cells
Reagent: siRNA pool against human genes, 50 nM siRNA
Measured: 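After 50 nM siRNA pool, branched-DNA assay measures six marker transcripts per well, minus blank, normalised to the geometric mean of two housekeeping transcripts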
Direction: BNIP3L mRNA: higher = more BNIP3L transcript after knockdown; NDRG1 mRNA: higher = more NDRG1 transcript after knockdown; BNIP3 mRNA: higher = more BNIP3 transcript after knockdown; ALDOC mRNA: higher = more ALDOC transcript after knockdown; ACSL5 mRNA: higher = more ACSL5 transcript after knockdown

| gene knocked down | BNIP3L mRNA, set 1 | NDRG1 mRNA, set 1 | BNIP3 mRNA, set 1 | ALDOC mRNA, set 1 | ACSL5 mRNA, set 1 |
| --- | --- | --- | --- | --- | --- |
| CNIH4 (cornichon family member 4) | 0.136 | 0.101 | 0.421 | 0.0193 | 0.193 |
| RRH (retinal pigment epithelium-derived rhodopsin homolog) | 0.0702 | 0.114 | 0.238 | 0.0403 | 0.201 |
| RPS12 (ribosomal protein S12) | 0.0832 | 0.148 | 0.358 | 0.00282 | 0.0565 |
| B9D2 (B9 domain containing 2) | 0.244 | 0.262 | 0.611 | 0.0675 | 0.172 |
| PEX16 (peroxisomal biogenesis factor 16) | 0.124 | 0.147 | 0.289 | 0.0591 | 0.179 |
| YARS2 (tyrosyl-tRNA synthetase 2) | 0.117 | 0.443 | 0.325 | 0.0353 | 0.309 |
| HNRNPA0 (heterogeneous nuclear ribonucleoprotein A0) | 0.177 | 0.225 | 0.242 | 0.0287 | 0.151 |
| OCLN (occludin) | 0.412 | 1.04 | 0.577 | 0.0247 | 0.139 |
| DDX3Y (DEAD-box helicase 3 Y-linked) | 0.0368 | 0.0803 | 0.21 | 0.000567 | 0.0619 |
| PTTG1 | 0.0642 | 0.177 | 0.271 | 0.00831 | 0.196 |
| SNHG32 (small nucleolar RNA host gene 32) | 0.112 | 0.162 | 0.372 | 0.0216 | 0.169 |
| ZFHX3 (zinc finger homeobox 3) | 0.146 | 0.131 | 0.502 | 0.0164 | 0.098 |
| DDX56 (DEAD-box helicase 56) | 0.186 | 0.327 | 0.337 | 0.0401 | 0.353 |
| GLRB (glycine receptor beta) | 0.0494 | 0.0815 | 0.171 | 0.0293 | 0.0849 |
| CLK4 (CDC like kinase 4) | 0.13 | 0.087 | 0.372 | 0.00592 | 0.24 |
| ASCL1 (achaete-scute family bHLH transcription factor 1) | 0.172 | 0.106 | 0.238 | 0.0106 | 0.155 |
| EWSR1 (EWS RNA binding protein 1) | 0.09 | 0.153 | 0.348 | 0.0187 | 0.167 |
| APIP (APAF1 interacting protein) | 0.122 | 0.132 | 0.171 | 0.022 | 0.1 |
| SMUG1 | 0.092 | 0.348 | 0.325 | 0.0197 | 0.204 |
| RNFT2 (ring finger protein, transmembrane 2) | 0.266 | 0.239 | 0.352 | 0.0233 | 0.453 |
| NCK1 (NCK adaptor protein 1) | 0.0715 | 0.133 | 0.265 | 0.0186 | 0.106 |
| IQCH (IQ motif containing H) | 0.0761 | 0.208 | 0.302 | 0.00578 | 0.359 |
| DPP8 (dipeptidyl peptidase 8) | 0.0964 | 0.141 | 0.331 | 0.0182 | 0.217 |
| RBBP6 (RB binding protein 6, ubiquitin ligase) | 0.122 | 0.668 | 0.242 | 0.0207 | 0.186 |
| FZR1 (fizzy and cell division cycle 20 related 1) | 0.109 | 0.582 | 0.241 | 0.0352 | 0.143 |
| RIC8A (RIC8 guanine nucleotide exchange factor A) | 0.152 | 0.0636 | 0.324 | 0.036 | 0.143 |
| PHOSPHO1 (phosphoethanolamine/phosphocholine phosphatase 1) | 0.0526 | 0.137 | 0.283 | 0.0285 | 0.0943 |
| CHAT (choline O-acetyltransferase) | 0.132 | 0.0964 | 0.394 | 0.0145 | 0.117 |
| SEMG2 (semenogelin 2) | 0.127 | 0.161 | 0.135 | 0.0399 | 0.0391 |
| CFAP45 (cilia and flagella associated protein 45) | 0.265 | 0.357 | 0.642 | 0.029 | 0.257 |
| RASGRF1 (Ras protein specific guanine nucleotide releasing factor 1) | 0.236 | 0.272 | 0.273 | 0.0859 | 0.117 |
| MADCAM1 (mucosal vascular addressin cell adhesion molecule 1) | 0.189 | 0.604 | 0.236 | 0.0054 | 0.396 |
| GLT8D2 (glycosyltransferase 8 domain containing 2) | 0.249 | 0.428 | 0.371 | 0.166 | 0.308 |
| IL2RA (interleukin 2 receptor subunit alpha) | 0.0647 | 0.118 | 0.347 | 0.0176 | 0.146 |
| NFKB1 (nuclear factor kappa B subunit 1) | 0.117 | 0.0105 | 0.318 | -0.0068 | 0.0688 |
| DYNC1LI2 (dynein cytoplasmic 1 light intermediate chain 2) | 0.102 | 0.0534 | 0.188 | 0.00447 | 0.267 |
| FSCN1 (fascin actin-bundling protein 1) | 0.195 | 0.39 | 0.363 | 0.0293 | 0.189 |
| PI4K2B (phosphatidylinositol 4-kinase type 2 beta) | 0.0787 | 0.244 | 0.371 | 0.00613 | 0.209 |
| COPS7B (COP9 signalosome subunit 7B) | 0.14 | 0.101 | 0.435 | 0.0374 | 0.188 |
| GNG2 (G protein subunit gamma 2) | 0.145 | 0.325 | 0.337 | 0.0253 | 0.0851 |
| LRRK1 (leucine rich repeat kinase 1) | 0.0971 | 0.137 | 0.428 | 0.00663 | 0.202 |
| GTF3C5 (general transcription factor IIIC subunit 5) | 0.0711 | 0.072 | 0.357 | 0.0111 | 0.108 |
| IRF7 (interferon regulatory factor 7) | 0.167 | 0.144 | 0.345 | 0.0127 | 0.193 |
| OGA (O-GlcNAcase) | 0.085 | 0.169 | 0.206 | 0.0261 | 0.0933 |
| UBOX5 (U-box domain containing 5) | 0.0991 | 0.167 | 0.383 | 0.0233 | 0.0827 |
| CORT (cortistatin) | 0.0568 | 0.481 | 0.245 | 0.0327 | 0.154 |
| CORT (cortistatin) | 0.074 | 0.588 | 0.274 | 0.0336 | 0.147 |
| PHF11 (PHD finger protein 11) | 0.107 | 0.264 | 0.304 | 0.0331 | 0.23 |
| LMNB2 (lamin B2) | 0.113 | 0.127 | 0.369 | 0.0192 | 0.137 |
| RFWD3 (ring finger and WD repeat domain 3) | 0.182 | 0.16 | 0.251 | 0.0504 | 0.129 |

Laid out differently: 2 of the entries above
APIP (APAF1 interacting protein)
- BNIP3L mRNA, set 1: 0.122
- NDRG1 mRNA, set 1: 0.132
- BNIP3 mRNA, set 1: 0.171
- ALDOC mRNA, set 1: 0.022
- ACSL5 mRNA, set 1: 0.1

SMUG1
- BNIP3L mRNA, set 1: 0.092
- NDRG1 mRNA, set 1: 0.348
- BNIP3 mRNA, set 1: 0.325
- ALDOC mRNA, set 1: 0.0197
- ACSL5 mRNA, set 1: 0.204
